Results deposited as PubChem BioAssay AID652259 (Drosophila RNAi Screening Center, 2013)

Aim: 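Genome-wide hunt for genes that control Wingless pathway activity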 (primary screen)
Cells: Drosophila clone 8 imaginal disc epithelial cells
Knock-down reagent: long dsRNA against Drosophila genes
Treatment: pathway stimulated by co-transfected Wingless expression plasmid
Measured: 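Dual luciferase reads per well after Wingless plasmid stimulation: reporter firefly light and Renilla control light; activity is firefly divided by Renilla, a ratio not deposited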
Scale: firefly reporter light: higher = more Wg reporter light, before normalisation; Renilla control light: higher = more transfected or surviving cells
Call rule: 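Strong candidates differ from their plate mean by at least two out of four per-plate statistical tests; weak candidates meet just one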
Meaning of the calls: active = candidate regulator (raises or lowers reporter); inactive = not a candidate
The screen tested about 22,000 reagents; shown is a random part of those with a known target gene and a result. Of all reagents, 233 (1.1%) were called active. 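Light values are raw, unnormalised plate reads; the ratio scores behind the reporter calls were not deposited.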 Unmarked entries are inactive. Names joined by + are all predicted targets of the reagent. Reagent sequences are not shown. The record does not give: the amount of reagent, the time to read-out, the dose of the treatment.

The first 2 entries, ahead of the listing:
CG15553 [DRSC15091] | firefly reporter light, replicate 1: 7344; Renilla control light, replicate 1: 3469
Tbp [DRSC04662] | reporter change call, replicate 1: Wg reporter activity lowered (active); firefly reporter light, replicate 1: 797; firefly reporter light, replicate 2: 3044; Renilla control light, replicate 1: 657; Renilla control light, replicate 2: 2535

Results, from the first entry:
CG15553 [DRSC15091] | firefly reporter light, replicate 1: 7344; Renilla control light, replicate 1: 3469
Tbp [DRSC04662] | reporter change call, replicate 1: Wg reporter activity lowered (active); firefly reporter light, replicate 1: 797; firefly reporter light, replicate 2: 3044; Renilla control light, replicate 1: 657; Renilla control light, replicate 2: 2535
TTLL6B [DRSC15932] | firefly reporter light, replicate 1: 9843; Renilla control light, replicate 1: 3824
CG32983 [DRSC22367] | firefly reporter light, replicate 1: 4.72e5; firefly reporter light, replicate 2: 5.46e5; Renilla control light, replicate 1: 1.16e5; Renilla control light, replicate 2: 1.53e5
CG11248 [DRSC11644] | firefly reporter light, replicate 1: 5728; Renilla control light, replicate 1: 2880
Afti [DRSC16440] | firefly reporter light, replicate 1: 3093; Renilla control light, replicate 1: 2186
mus301 [DRSC10939] | firefly reporter light, replicate 1: 1976; firefly reporter light, replicate 2: 8492; Renilla control light, replicate 1: 1514; Renilla control light, replicate 2: 2882
CG3104 [DRSC00567] | firefly reporter light, replicate 1: 4900; firefly reporter light, replicate 2: 10485; Renilla control light, replicate 1: 1472; Renilla control light, replicate 2: 3122
LysD + LysB + LysC (retired record) [DRSC21249] | firefly reporter light, replicate 1: 18882; Renilla control light, replicate 1: 9472
mus302 [DRSC09905] | firefly reporter light, replicate 1: 7380; Renilla control light, replicate 1: 3220
sofe [DRSC19751] | firefly reporter light, replicate 1: 2809; firefly reporter light, replicate 2: 5560; Renilla control light, replicate 1: 1131; Renilla control light, replicate 2: 2096
Nt5c [DRSC06711] | firefly reporter light, replicate 1: 10029; Renilla control light, replicate 1: 2828
hng2 [DRSC16412] | firefly reporter light, replicate 1: 14816; Renilla control light, replicate 1: 4280
Gr77a [DRSC11446] | firefly reporter light, replicate 1: 2949; Renilla control light, replicate 1: 1280
CG11334 [DRSC14066] | firefly reporter light, replicate 1: 3034; Renilla control light, replicate 1: 1232
CG11334 [DRSC14302] | firefly reporter light, replicate 1: 22711; Renilla control light, replicate 1: 13255
Pfk [DRSC07506] | firefly reporter light, replicate 1: 6843; Renilla control light, replicate 1: 2741
CG15536 [DRSC15072] | firefly reporter light, replicate 1: 11469; firefly reporter light, replicate 2: 6.96e5; Renilla control light, replicate 1: 4679; Renilla control light, replicate 2: 3.64e5
CG15536 [DRSC22844] | firefly reporter light, replicate 1: 5.45e5; firefly reporter light, replicate 2: 5.94e5; Renilla control light, replicate 1: 1.93e5; Renilla control light, replicate 2: 2.47e5
I-3 [DRSC20479] | firefly reporter light, replicate 1: 10267; Renilla control light, replicate 1: 8058
Or85d [DRSC16767] | firefly reporter light, replicate 1: 16472; Renilla control light, replicate 1: 3208
CG16772 [DRSC02516] | firefly reporter light, replicate 1: 3309; firefly reporter light, replicate 2: 11168; Renilla control light, replicate 1: 820; Renilla control light, replicate 2: 3589
CG18853 [DRSC06795] | firefly reporter light, replicate 1: 3261; firefly reporter light, replicate 2: 5531; Renilla control light, replicate 1: 208; Renilla control light, replicate 2: 3060
ThrRS [DRSC02843] | firefly reporter light, replicate 1: 6976; Renilla control light, replicate 1: 2195
Elp3 [DRSC00448] | firefly reporter light, replicate 1: 2877; firefly reporter light, replicate 2: 5264; Renilla control light, replicate 1: 619; Renilla control light, replicate 2: 1917
